This data set relates to Th+ neurons of Th-GCaMP6f (WT) mice. Kind of data set: GCaMP6f Ca2+ imaging of Th+ neurons in arcuate nucleus brain slices with 355 nm photoswitching, Th-GCaMP6f (WT) mice. The conditions noted are these: after 355 nm pulse.

On to `Cn1c(=O)n(CCCO)c(=O)c2c1nc(Oc1ccc(N=Nc3ccccc3)c(Cl)c1)n2Cc1ccc(Cl)cc1` [AzHC], for which the “Hill coefficient of Ca2+ dose-response in Th+ neurons, WT” value came to 1.95.
For `Cn1c(=O)n(CCCO)c(=O)c2c1nc(Oc1ccc(/N=N\c3ccccc3)c(Cl)c1)n2Cc1ccc(Cl)cc1` [Z*-AzHC], the “Hill coefficient of Ca2+ dose-response in Th+ neurons, WT” value is recorded as 1.95.

These data come from article PMC12858405, “Ideal efficacy photoswitching for chromocontrol of TRPC4/5 channel functions in live tissues” (Nature Chemical Biology, 2026).
